tested on: not listed separately; assay: PTSD metabolomics: LC-MS/MS of metabolites, PTSD subjects vs controls, PLSDA; parameters: species or system human; conditions: ratio of metabolite amount, 18 PTSD vs 20 control

Compound	PTSD/Control
2-Octenoylcarnitine	1.448
3-Hydroxyhexadecanoylcarnitine	0.8834
Nc1c(O)cccc1C(=O)O [3-Hydroxyanthranilic acid]	1.253
CC(C)CCC[C@@H](C)[C@H]1CC[C@H]2[C@@H]3C(=O)C=C4C[C@@H](O)CC[C@]4(C)[C@H]3CC[C@]12C [7-ketocholesterol]	0.7981

tested on: Fragile X (Fmr1) knockout mouse; assay: Plasma metabolomics after weekly suramin or saline, Fragile X model; type: in vivo; conditions: KO-Suramin vs KO-Saline, Fmr1 knockout mice, PLSDA
Procedure: Samples were analyzed on an AB SCIEX QTRAP 5500 triple quadrupole mass spectrometer equipped with a Turbo V electrospray ionization (ESI) source, Shimadzu LC-20A UHPLC system, and a PAL CTC autosampler (AB ACIEX, Framingham, Mass., USA). […] Plasma was separated by centrifugation at 600 g×5 minutes at 20° C. within one hour of collection. Fresh lithium-heparin plasma was transferred to labeled tubes for storage at −80° C. for analysis. Typically 45 μl of plasma was thawed on ice and transferred to a 1.7 ml Eppendorf tube. Two and one-half (2.5) μl of a cocktail containing 35 commercial stable isotope internal standards, and 2.5 μl of 310 stable isotope internal standards that were custom-synthesized in E. coli and S. cerevisiae by metabolic labeling with ^13C-glucose and ^13C-bicarbonate, were added, mixed, and incubated for 10 min at room temperature to permit small molecules and vitamins in the internal standards to associate with plasma binding proteins. Macromolecules (protein, DNA, RNA, etc.) were precipitated by extraction with 4 volumes (200 μl) of cold (−20° C.), acetonitrile:methanol (50:50) (LCMS grade, Cat#LC015-2.5 and GC230-4, Burdick & Jackson, Honeywell), vortexed vigorously, and incubated on crushed ice for 10 min, then removed by centrifugation at 16,000 g×10 min at 4° C. The supernatants containing the extracted metabolites and internal standards in the resulting 40:40:20 solvent mix of acetonitrile:methanol:water were transferred to labeled cryotubes and stored at −80° C. for LC-MS/MS (liquid chromatography-tandem mass spectrometry) analysis.
LC-MS/MS analysis was performed by multiple reaction monitoring (MRM) under Analyst v1.6.1 (AB SCIEX, Framingham, Mass., USA) software control in both negative and positive mode with rapid polarity switching (50 ms). Nitrogen was used for curtain gas (set to 30), collision gas (set to high), ion source gas 1 and 2 (set to 35). The source temperature was 500° C. Spray voltage was set to −4500 V in negative mode and 5500 V in positive mode. The values for Q1 and Q3 mass-to-charge ratios (m/z), declustering potential (DP), entrance potential (EP), collision energy (CE), and collision cell exit potential (CXP) were determined and optimized for each MRM for each metabolite. Ten microliters of extract was injected by PAL CTC autosampler into a 250 mm×2 mm, 5 μm Luna NH2 aminopropyl HPLC column (Phenomenex, Torrance, Calif., USA) held at 25° C. for chromatographic separation. […] The flow rate was 300 μl/min. All the samples were kept at 4° C. during analysis. The chromatographic peaks were identified using MultiQuant (v3.0, AB SCIEX), confirmed by manual inspection, and the peak areas integrated. The median of the peak area of stable isotope internal standards was calculated and used for the normalization of metabolites concentration across the samples and batches. Prior to multivariate and univariate analysis, the data were log-transformed.
A rendering of mammalian intermediary metabolism was constructed in Cytoscape v 3.1.1 (see, e.g., [http://]www.cytoscape.org/). […] Nodes in the Cytoscape network represent metabolites within the pathways and have been colored according to the Z-score. The Z-score was computed as the arithmetic difference between the mean concentration of each metabolite in the KO-Sur treatment group and the KO-Sal control group, divided by the standard deviation in the controls. Node colors were arranged on a red-green color scale with green representing −2.00 Z-score, red representing +2.00 Z-score, and with a zero (0) Z-score represented as white.
Group means and standard error of the means (SEM) are reported. Behavioral data were analyzed by two-way ANOVA and one-way ANOVAs (GraphPad Prism 5.0d, GraphPad Software Inc., La Jolla, Calif., USA, or Stata/SE v12.1, StataCorp, College Station, Tex., USA). Pair-wise post hoc testing was performed by the method of Tukey or Newman-Keuls. Significance was set at p<0.05.

Compound	VIP Score, metabolites changed by antipurinergic therapy
C[n+]1cccc(C(N)=O)c1 [1-Methylnicotinamide]	3.4567
O=C(O)C(COP(=O)(O)O)OP(=O)(O)O (centres unmarked) [2,3-Diphosphoglyceric acid]	2.6413
CCCCCCCCC=CC=CCC(=O)OC(CC(=O)[O-])C[N+](C)(C)C (centres unmarked) [3,5-Tetradecadiencarnitine]	2.0594
Cc1cccc(CC(=O)O)c1 [3-methylphenylacetic acid]	1.6055
O=C(O)C(O)Cc1ccc(O)cc1 (centres unmarked) [4-hydroxyphenyllactic acid]	2.9524
CC(C)CCC[C@@H](C)[C@H]1CC[C@H]2[C@@H]3CC[C@H]4C[C@@H](O)CC[C@]4(C)[C@H]3CC[C@]12C [5-alpha-Cholestanol]	1.6542
CCCCC/C=C\C/C=C\CC1OC1C/C=C\CCCC(=O)O (centres unmarked) [8,9-Epoxyeicosatrienoic acid]	1.8643
C=CCCCCCCCC(=O)OC(CC(=O)[O-])C[N+](C)(C)C (centres unmarked) [9-Decenoylcarnitine]	1.6702
CCCCCCC=CCCCCCCCC(=O)OC(CC(=O)[O-])C[N+](C)(C)C (centres unmarked) [9-Hexadecenoylcarnitine]	1.5637
CCCCC/C=C\C=C\[C@H](O)C/C=C\C/C=C\CCCC(=O)O [11(R)-HETE]	1.5384
CCCCC/C=C\CC(O)C(O)C/C=C\C/C=C\CCCC(=O)O (centres unmarked) [11,12-DiHETrE]	1.5284
CCCCCC(O)C=CC1OC(=O)CC(O)C1CC=CCCCC(=O)O (centres unmarked) [11-Dehydro-thromboxane B2]	3.0285
CCCCCC1OC1CC=CCC=CCC=CCCCC(=O)O (centres unmarked) [14,15-epoxy-5,8,11-eicosatrienoic acid]	1.9964
CCCCCCCCCCCCC/C=C/[C@@H](O)[C@H](CO)NC(=O)CCCCCCCCCCCCCCCCCCCCCCCCC [Ceramide (d18:1/26:0)]	1.7619
C[C@H](CCC(=O)O)[C@H]1CC[C@H]2[C@@H]3[C@H](O)C[C@@H]4C[C@H](O)CC[C@]4(C)[C@H]3C[C@H](O)[C@]12C [Cholic acid]	1.8062
N[C@@H](CCC(=O)N[C@@H](CSSC[C@H](N)C(=O)O)C(=O)NCC(=O)O)C(=O)O [Cysteineglutathione disulfide]	2.2284
Nc1ccn([C@@H]2O[C@H](CO)[C@@H](O)[C@H]2O)c(=O)n1 [Cytidine]	1.5738
C[C@]12CC[C@H](OS(=O)(=O)O)CC1=CC[C@@H]1[C@@H]2CC[C@]2(C)C(=O)CC[C@@H]12 [Dehydroisoandrosterone 3-sulfate]	1.5627
CCCCCCCCCCCC(=O)O[C@H](CC(=O)[O-])C[N+](C)(C)C [Dodecanoylcarnitine]	1.6983
O=C(OP(=O)(O)O)C(O)COP(=O)(O)O (centres unmarked) [Glyceric acid 1,3-biphosphate]	1.6112
Nc1nc2c(ncn2[C@@H]2O[C@H](CO)[C@@H](O)[C@H]2O)c(=O)[nH]1 [Guanosine]	4.1962
CCCCCC(=O)OC(CC(=O)O)C[N+](C)(C)C.[Cl-] (centres unmarked) [Hexanoylcarnitine]	2.766
CC(C)C[C@H](O)C(=O)O [Hydroxyisocaproic acid]	1.6696
O=c1[nH]cnc2nc[nH]c12 [Hypoxanthine]	6.9083
OC[C@H]1O[C@@H](n2cnc3c(O)ncnc32)[C@H](O)[C@@H]1O [Inosine]	6.3985
N[C@@H](CCS(=O)(=O)O)C(=O)O [L-Homocysteic acid]	1.6739
N[C@@H](CSSC[C@H](N)C(=O)O)C(=O)O [L-cystine]	2.8156
CCCCC/C=C\C[C@@H](O)/C=C/C=C/C=C\[C@@H](O)CCCC(=O)O [LTB4]	4.7929

Compound	VIP Score, metabolites changed by antipurinergic therapy
O=CCC=O [Malondialdehyde]	2.0928
CCCCCCCCCCCCCC(=O)O[C@H](CC(=O)[O-])C[N+](C)(C)C [Myristoylcarnitine]	1.8395
CCCCCCCC(=O)O[C@H](CC(=O)O)C[N+](C)(C)C [Octanoylcarnitine]	1.7888
O=C(O)CC(=O)C(=O)O [Oxaloacetic acid]	1.5682
CCCCCCCCCCCCCCCC(=O)OCC(COP(=O)(O)OCC(O)CO)OC(=O)CCCCCCCCCCCCCCC (centres unmarked) [PG(16:0/16:0)]	1.7575
C[N+](C)(C)C[C@@H](CC(=O)[O-])OC(=O)CCCCCC(=O)O [Pimelylcarnitine]	1.7778
CCC(=O)O [Propionic acid]	1.6633
Cc1ncc(CO)c(CN)c1O [Pyridoxamine]	1.5335
O=C(CO)[C@@H](O)[C@H](O)[C@H](O)[C@H](O)COP(=O)(O)O [Sedoheptulose 7-phosphate]	1.5159
Cc1cn([C@H]2C[C@H](O)[C@@H](COP(=O)(O)OP(=O)(O)OC3O[C@H](CO)[C@@H](O)[C@H](O)[C@H]3O)O2)c(=O)[nH]c1=O (stereo partly drawn) [dTDP-D-glucose]	2.1762
Bismonoacylphospholipid (18:1/18:0)	1.6108
Bismonoacylphospholipid (18:1/18:1)	2.0984
Cardiolipin (24:1/24:1/24:1/14:1)	1.9754
Ceramide (d18:1/16:0 OH)	2.4973
Ceramide (d18:1/20:1)	1.5607
Ceramide (d18:1/24:0 OH)	2.6743
Ceramide (d18:1/24:1)	2.6984
Dihexosylceramide (18:1/20:0)	2.5094
Dihexosylceramide (18:1/24:1)	2.7087
Dodecenoylcarnitine	1.7435
PC (18:0/20:3)	2.087
PE (38:5)	1.5338
PI (26:1)	2.5143
Trihexosylceramide 18:1/16:0	2.2984
Trihexosylceramide 18:1/22:0	2.1755
Trihexosylceramide 18:1/24:0	1.8222
Trihexosylceramide 18:1/24:1	1.9105
